Reference: patent US10231463B2, “Food mass suitable for microwaving” (Chemische Fabrik Budenheim KG, priority 2013, dated 2019)

Key:
[1] = Thawing and baking trials with puff pastry in a microwave oven; conditions: 2 parts by weight additive, 30 minutes standing time, thermal imaging camera; for M1 (averaged crust temperature outside): deep-frozen puff pastry dough pieces (PPD-RO 440 watts, 200 seconds or PPD-HP 600 watts, 300 seconds; table does not say which); for M2 (averaged crumb temperature in the interior of the dough piece): deep-frozen puff pastry dough pieces (PPD-RO or PPD-HP not stated)
Description: A puff pastry from Veripan was used as the basic recipe.
2 parts by weight of microwave absorber were further added to the basic recipe.
Wheat flour, inverted sugar, emulsifier and optionally microwave absorber were put into a mixing container and mixed. The water and 20% of the vegetable fat were added and kneaded for 3 minutes at a low stage and for 5 minutes at a medium stage with a spiral kneader. The dough temperature was monitored. The target temperature was 18° C. After that the remaining vegetable fat was beaten into the dough. The dough was then folded at intervals each of 30 minutes in 4 working steps, more specifically 2 single and 2 double turns. They give by calculation 144 fat layers (margarine), divided into very thin dough and fat layers. Before processing the dough was stored in a cooled condition for 12 hours.
Unbaked puff pastry dough roundels without filling and pre-baked puff pastry dough pockets (hot pockets) with a tomato sauce filling were respectively subjected to microwave radiation as deep-frozen dough pieces in a microwave oven from Panasonic (see Example 2) for a predetermined period and with a predetermined microwave power. After a […] standing time the temperature of the dough piece was measured by means of a thermal imaging camera (Fluke Ti20) and evaluated.
Measurement value 1 (M1)=averaged crust temperature outside
Measurement value 2 (M2)=averaged crumb temperature in the interior of the dough piece.
Puff pastry dough roundel (PPD-RO): 440 watts; 200 seconds
Puff pastry dough hot pockets (PPD-HP): 600 watts; 300 seconds
Table 3 hereinafter reproduces the additives used, the temperature measurement values M1 and M2 and the corresponding temperature difference (ΔT) between crust temperature and crumb temperature of the dough piece.
Assessment of Microwave Activity in Puff Pastry Doughs 1: ΔT=>20° C.=very good 2: ΔT=15 to <20° C.=good 3: ΔT=<15° C.=no additional additive

[2] = Thawing and baking trials with yeast-raised wheat frozen doughs in a microwave oven; conditions: 2 parts by weight additive; deep-frozen 200 g dough piece; 600 watts, 120 seconds; 2 minutes standing time; infrared sensor
Description: Dough Composition (Basic Recipe):
In addition 2 parts by weight of microwave absorber were added to the basic recipe.
• Mixing and kneading time: 3+2 minutes (the latter in a Stephan mixer) • Dough standing time: 20 minutes • Dough piece weight: 200 g • Cooking time of the dough pieces: 20 minutes • Freezing time: about 4 hours • Deep freeze storage time: about 2 days Thawing and Baking Trials:
The deep-frozen dough pieces were exposed to microwave radiation in a microwave oven from Panasonic (model: NN-GD560M—inverter microwave) for a predetermined period of 120 seconds and with a predetermined microwave power of 600 watts (according to the device indication). After 2 minutes of standing time the temperature of the crust and the crumb was measured by means of an infrared temperature sensor at various measurement points on the dough piece.
Measurement value 1 (M1)=average crust temperature outside
Measurement value 2 (M2)=average crumb temperature in the interior of the dough piece.

| Molecule | M1 (averaged crust temperature outside) [1] [°C] | M2 (averaged crumb temperature in the interior of the dough piece) [1] [°C] | M1 (average crust temperature outside) [2] [°C] | M2 (average crumb temperature in the interior of the dough piece) [2] [°C] |
| --- | --- | --- | --- | --- |
| O=P([O-])([O-])[O-].[Fe+3] [FeOP, Iron-III-orthophosphate] | 93.3 | 78.7 | – | – |
| O=P([O-])([O-])OP(=O)([O-])[O-].O=P([O-])([O-])OP(=O)([O-])[O-].O=P([O-])([O-])OP(=O)([O-])[O-].[Fe+3].[Fe+3].[Fe+3].[Fe+3] [FePP, Iron-III-pyrophosphate] | 110.0 | 92.6 | – | – |
| O=P([O-])(O)OP(=O)([O-])O.[Ca+2] [CAPP, Acid calcium pyrophosphate] | 102.0 | 75.5 | – | – |
| O=P([O-])([O-])OP(=O)([O-])[O-].[Mg+2].[Mg+2] [MgPP, Magnesium pyrophosphate] | 92.9 | 77.7 | – | – |
| Calcium gluconate [CaGl] | – | – | 77.1 | 40.5 |
